Experimental data: US4313943A, “7-Chloro-2,3-dihydro-5-phenyl-1-propargyl-1H-1,4-benzodiazepine-2-one, and a pharmaceutical composition thereof” (priority 1972, dated 1982)

Key:
[1] = Motor coordination in rats (rotarod, Dunham and Miya 1957); conditions: rat, po
[2] = Acute toxicity comparison (LD50, Litchfield and Wilcoxan); conditions: in vivo; Table 11; oral; species not given
Experimental: Toxicity in test animals to the test compounds in terms of LD50 after oral and intraperitoneal administration was determined according to the procedure of Litchfield and Wilcoxan (1949) and the hypnotic effect on test animals was determined in accordance with the method of Janssen (1959).

## CN1C(=O)CN=C(c2ccccc2)c2cc(Cl)ccc21 [Compound 3, 7-chloro-1,3-dihydro-1-methyl-5-phenyl-2H-1,4-benzodiazepin-2-one, reference compound]
[1]
  TD50: 14.2 mg/kg
[2]
  LD50: 2080 mg/kg
